This passage reports binding results from publication doi:10.1101/2022.03.07.483334.

The chains behind the UniProt entries cited, without tags or fusion partners. Where a name states a change or a piece, a line headed by the entry shows the natural chain unless it says otherwise.
UniProt Q01196: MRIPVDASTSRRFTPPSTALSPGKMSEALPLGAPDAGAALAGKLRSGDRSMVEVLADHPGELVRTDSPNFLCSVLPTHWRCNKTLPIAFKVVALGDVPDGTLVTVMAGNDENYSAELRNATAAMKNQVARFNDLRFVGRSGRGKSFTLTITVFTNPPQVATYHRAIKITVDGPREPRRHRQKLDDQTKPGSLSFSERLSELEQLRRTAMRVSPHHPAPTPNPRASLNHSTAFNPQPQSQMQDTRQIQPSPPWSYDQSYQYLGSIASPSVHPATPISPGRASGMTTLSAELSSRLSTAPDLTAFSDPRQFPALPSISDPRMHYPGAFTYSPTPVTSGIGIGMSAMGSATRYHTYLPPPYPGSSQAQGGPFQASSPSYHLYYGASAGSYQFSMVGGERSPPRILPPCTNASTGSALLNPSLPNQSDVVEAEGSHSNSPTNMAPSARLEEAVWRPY
UniProt P61244: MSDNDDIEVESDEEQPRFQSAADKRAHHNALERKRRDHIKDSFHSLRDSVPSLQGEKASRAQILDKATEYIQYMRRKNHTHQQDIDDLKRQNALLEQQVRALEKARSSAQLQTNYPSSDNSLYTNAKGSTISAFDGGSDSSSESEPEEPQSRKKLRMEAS

The assay addresses HA-tagged RUNX1A (doxycycline-inducible, in K562 cells) (human) (UniProt Q01196). The experiment in a line: co-IP.

No constants are given. Whether binding was seen depends on the method and setting. In cells and extracts the contact can be indirect. Binding calls can cover weak binding; strength is not graded here.

Turning to “MAX (in K562 cells) (from UniProt P61244 1-160)”, the binding entry is given as “binds”.
